Experimental data reported in doi:10.1101/2025.11.06.686927.
These are yes or no findings as the source states them, for the method shown. In cells and extracts the contact can be indirect. Some binding calls cover weakened binding; strength is not graded here.

Target: T1, CDK8 (Xenopus egg extract) (Xenopus laevis (endogenous in egg extract)) (UniProt Q66KH9)
T1 sequence: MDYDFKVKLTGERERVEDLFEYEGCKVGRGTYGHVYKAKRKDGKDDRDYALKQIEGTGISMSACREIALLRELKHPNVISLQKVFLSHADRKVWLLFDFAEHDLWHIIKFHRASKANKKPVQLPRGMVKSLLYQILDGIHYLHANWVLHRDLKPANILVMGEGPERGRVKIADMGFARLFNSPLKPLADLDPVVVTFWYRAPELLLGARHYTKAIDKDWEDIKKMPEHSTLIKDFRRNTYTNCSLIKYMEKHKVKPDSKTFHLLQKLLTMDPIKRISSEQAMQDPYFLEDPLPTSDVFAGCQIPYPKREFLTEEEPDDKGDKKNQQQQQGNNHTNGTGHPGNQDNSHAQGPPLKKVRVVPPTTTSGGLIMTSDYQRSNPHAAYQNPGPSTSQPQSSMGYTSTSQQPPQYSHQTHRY
Test: co-IP

binding: binds
B1: Cyclin C (Xenopus egg extract) (protein, UniProt Q4KLA0 1-283)
chain: MAGNFWQSSHYLQWILDKQDLLKERQKDLKFLSEEEYWKLQIFFTNVIQALGEHLKLRQQVIATATVYFKRFYARYSLKSIDPVLMAPTCVFLASKVEEFGVVSNTRLISAATSVLKTRFSYAFPKEFPYRMNHILECEFYLLELMDCCLIVYHPYRPLLQYVQDMGQEDMLLPLAWRIVNDTYRTDLCLLYPPFMIALACLHVACVVQQKDARQWFAELSVDMEKILEIIRVILKLYEQWKNFDERKEMASILSKMPKPKPPPNSDGEQGTNGSQSSGYSQS
